According to patent US12460245B2, “Luciferase sequences utilizing infrared-emitting substrates to produce enhanced luminescence” (Promega Corporation, priority 2014, dated 2025):

Assays:
Assay type in all cases: biochemical
[1] = tested on: UltraGlo® luciferase; experiment: Spectral scan of near-IR substrates with purified enzyme; settings: substrate 1 mM in Bright-Glo Assay buffer + 1 mM ATP
[2] = tested on: Click Beetle Red Luciferase; experiment: as above; settings: substrate 1 mM in Bright-Glo Assay buffer + 1 mM ATP
[3] = Spectral measurements of purified enzymes; settings: purified enzyme; 20 μM PBI-4739; Tecan-M1000 spectral scan
[4] = Spectral measurements of purified enzymes; settings: purified enzyme; 20 μM PBI-4813; Tecan-M1000 spectral scan

Molecule	spectral maximum with UltraGlo® luciferase [1] [nm]	spectral maximum with Click Beetle Red Luciferase [2] [nm]	spectral max using PBI-4739 as substrate [3]	spectral max using PBI-4813 as substrate [4]
O=C(O)C1CSC(c2nc3ccc4cc(O)ccc4c3s2)=N1 (stereo not shown) [PBI-4739]	660	760		
Nc1ccc2c(ccc3nc(C4=NC(C(=O)O)CS4)sc32)c1 (stereo not shown) [PBI-4813]	670	655		
ATG 1240: CBR variant R334S and G351R (SEQ ID NO: 2) (protein) MVKREKNVIYGPEPLHPLEDLTAGEMLFRALRKHSHLPQALVDVVGDESLSYKEFFEATVLLAQSLHNCGYKMNDVVSICAENNTRFFIPVIAAWYIGMIVAPVNESYIPDELCKVMGISKPQIVFTTKNILNKVLEVQSRTNFIKRIIILDTVENIHGCESLPNFISRYSDGNIANFKPLHFDPVEQVAAILCSSGTTGLPKGVMQTHQNICVRLIHALDPRYGTQLIPGVTVLVYLPFFHAFGFHITLGYFMVGLRVIMFRRFDQEAFLKAIQDYEVRSVINVPSVILFLSKSPLVDKYDLSSLRELCCGAAPLAKEVAEVAAKRLNLPGISCGFGLTESTSAIIQTLRDEFKSGSLGRVTPLMAAKIADRETGKALGPNQVGELCIKGPMVSKGYVNNVEATKEAIDDDGWLHSGDFGYYDEDEHFYVVDRYKELIKYKGSQVAPAELEEILLKNPCIRDVAVVGIPDLEAGELPSAFVVKQPGTEITAKEVYDYLAERVSHTKYLRGGVRFVDSIPRNVTGKITRKELLKQLLVKAGGV			about 750 nm	about 725 nm
CBR: click beetle red luciferase polypeptide of SEQ ID NO: 1 (protein) MVKREKNVIYGPEPLHPLEDLTAGEMLFRALRKHSHLPQALVDVVGDESLSYKEFFEATVLLAQSLHNCGYKMNDVVSICAENNTRFFIPVIAAWYIGMIVAPVNESYIPDELCKVMGISKPQIVFTTKNILNKVLEVQSRTNFIKRIIILDTVENIHGCESLPNFISRYSDGNIANFKPLHFDPVEQVAAILCSSGTTGLPKGVMQTHQNICVRLIHALDPRYGTQLIPGVTVLVYLPFFHAFGFHITLGYFMVGLRVIMFRRFDQEAFLKAIQDYEVRSVINVPSVILFLSKSPLVDKYDLSSLRELCCGAAPLAKEVAEVAAKRLNLPGIRCGFGLTESTSAIIQTLGDEFKSGSLGRVTPLMAAKIADRETGKALGPNQVGELCIKGPMVSKGYVNNVEATKEAIDDDGWLHSGDFGYYDEDEHFYVVDRYKELIKYKGSQVAPAELEEILLKNPCIRDVAVVGIPDLEAGELPSAFVVKQPGTEITAKEVYDYLAERVSHTKYLRGGVRFVDSIPRNVTGKITRKELLKQLLVKAGGV			about 760 nm	about 650 nm
ATG 1230: CBR variant I389F, S444R, G251S (SEQ ID NO: 3) (protein) MVKREKNVIYGPEPLHPLEDLTAGEMLFRALRKHSHLPQALVDVVGDESLSYKEFFEATVLLAQSLHNCGYKMNDVVSICAENNTRFFIPVIAAWYIGMIVAPVNESYIPDELCKVMGISKPQIVFTTKNILNKVLEVQSRTNFIKRIIILDTVENIHGCESLPNFISRYSDGNIANFKPLHFDPVEQVAAILCSSGTTGLPKGVMQTHQNICVRLIHALDPRYGTQLIPGVTVLVYLPFFHAFGFHITLSYFMVGLRVIMFRRFDQEAFLKAIQDYEVRSVINVPSVILFLSKSPLVDKYDLSSLRELCCGAAPLAKEVAEVAAKRLNLPGIRCGFGLTESTSAIIQTLGDEFKSGSLGRVTPLMAAKIADRETGKALGPNQVGELCFKGPMVSKGYVNNVEATKEAIDDDGWLHSGDFGYYDEDEHFYVVDRYKELIKYKGRQVAPAELEEILLKNPCIRDVAVVGIPDLEAGELPSAFVVKQPGTEITAKEVYDYLAERVSHTKYLRGGVRFVDSIPRNVTGKITRKELLKQLLVKAGGV			about 760 nm	about 650 nm
